This assay is described as follows: qHTS Assay for Lipid Storage Modulators in Drosophila S3 Cells.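 For cell number change: cells counted by Cell Tracker Red CMTPX staining in the red channel.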 The following applies: BODIPY lipid droplet fluorescence, 18-24 h; for cell number change: measured here: cell count max response, cells fed with added oleic acid. The procedure, abridged: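 Drosophila S3 cells got compounds at several concentrations plus oleic acid (400 uM solution). Laser-scanning cytometry with 488 nm excitation read lipid droplets at 500-530 nm and cells at 575-640 nm. Percent activity was relative to 20 uM Triacsin C.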
For orientation: In qHTS, concentration-response curves come from the screen itself.

[1] abbreviates: measured here: cell number channel AC50, cells fed with added oleic acid.
Setting [2] is: measured here: lipid fluorescence (Fed channel) AC50, cells fed with added oleic acid.

This is one part of the list. These are further read-outs of the screen, such as a control signal, another cell line or another target. No call is given for them. Compounds called inactive in the main read-out are mostly missing here. The note in brackets gives the kind of curve behind each potency; many fits are weak.

The results in this text go back to PubChem BioAssay AID2685 (National Center for Advancing Translational Sciences (NCATS), 2010).

As a reminder, the AC50 is the midpoint of the concentration-response curve, whichever way the signal moves.

Consider `N#CCCN1CCN(C(=O)c2c(N)no[n+]2[O-])CC1`, for which the cell number change was -15.8%. Turning to `COc1cc(OC)cc(-c2n[nH]c(=S)n2-c2ccc3c(c2)OCO3)c1`, the AC50 under setting [1] was 0.206 µM [rising, full curve] and the AC50 under setting [2] was 1.84 µM [rising, partial curve, poor fit]. On to `O=C(CN1C(=O)c2ccc([N+](=O)[O-])cc2C1=O)NCC1CCCO1` (configuration not stated), for which, under setting [2], the AC50 was 0.82 µM [falling, single point]. Regarding `CC(C)(CNC(=O)c1ccc(NS(=O)(=O)c2ccc(Br)cc2)cc1)N1CCOCC1`, the cell number change was -27.8%. For the same compound, under setting [1], the AC50 is 4.61 µM [falling, full curve, poor fit]. Besides, the AC50 under setting [2] is 4.61 µM [falling, full curve]. Take `COC(=O)c1cn(C(=O)c2ccccc2Cl)c2ccccc12`: the cell number change came to 23.1%. The AC50 under setting [2] was 16.4 µM [falling, partial curve, poor fit]. Regarding `O=Cc1c(OCc2ccccc2)ccc2ccccc12`, the cell number change was -26.2%. For the same compound, the half-maximal activity concentration (AC50) under setting [1] is 0.517 µM [falling, single point]. With `CN(C)S(=O)(=O)c1ccc(NC(=O)c2cc(F)c(F)cc2Cl)cc1`, the cell number change amounted to 106%. Besides, the AC50 under setting [1] is 29.1 µM [rising, single point].

Take `COc1cccc(N(CC(=O)NC2CCCC2)C(=O)Cn2nnc(-c3ccc(C)o3)n2)c1`: the cell number change was -12.7%. Still for that read-out and setting: the figure for `CCC1CCCCN1C(=O)C(=O)c1cn(CC(=O)N(CC)CC)c2ccccc12` (configuration not stated) is 3.18%.

Regarding `O=C(O)c1cc(S(=O)(=O)Nc2ccc3cn[nH]c3c2)ccc1O`, the cell number change is -5.29%. The AC50 under setting [1] was 6.51 µM [rising, single point]. Further, the AC50 under setting [2] is 0.58 µM [rising, single point]. On to `Cc1noc(C)c1C(=O)N1CCN(S(=O)(=O)c2ccc(F)cc2)CC1`, for which the cell number change was -16%. The AC50 under setting [1] was 6.51 µM [falling, single point]. Besides, the half-maximal activity concentration (AC50) under setting [2] is 6.51 µM [falling, single point]. As to `Cc1ccc(S(=O)(=O)NC2c3cccc4cccc(c34)C2Sc2nc(C)cc(C)n2)cc1` (configuration not stated), the cell number change was -9.78%.

For `Cc1ccc(OCCCC(=O)NC(C)c2ccccc2)cc1` (configuration not stated), the cell number change is 12.6%. Under setting [2], the AC50 was 0.103 µM [falling, full curve, poor fit]. Turning to `Cc1ccc2c(c1)-c1c(ssc1=S)C(C)(C)N2C(=O)c1ccco1`, the cell number change was -74.9%. Further, the AC50 under setting [1] was 11.6 µM [falling, partial curve]. Moreover, the AC50 under setting [2] was 10.3 µM [falling, partial curve]. Take `C=CCSc1nc(N)c(C(=O)Nc2ccccc2)cc1C#N`: under setting [1], the AC50 was 2.31 µM [rising, partial curve]. As to `COc1ccc2cc(C(=O)/C=C/c3cc(OC)c(OC)c(OC)c3)ccc2c1`, the cell number change came out at 20.6%. Moreover, under setting [2], the concentration at half-maximal activity (AC50) was 23.1 µM [falling, partial curve, poor fit].

Consider `Cc1ccc(S(=O)(=O)N2CCCCC2)cc1NC(=O)c1cccnc1`, for which, under setting [2], the AC50 is 6.51 µM [rising, single point].

Consider `CCOC(=O)c1ccc(OCCOc2ccccc2C)cc1`, for which the cell number change is -4.01%. Take `COc1ccc2c(=O)c(-c3ccc4c(c3)OCO4)coc2c1`: the cell number change worked out at 31.8%. Besides, the AC50 under setting [1] is 1.84 µM [rising, partial curve, poor fit]. In addition, the AC50 under setting [2] is 0.146 µM [rising, full curve]. As for `c1cncc(-c2csc(-c3cccnc3)n2)c1`, the cell number change was -4.17%. Moreover, under setting [2], the AC50 was 29.1 µM [falling, single point]. Consider `Cc1nc2c(-c3ccccc3)cnn2c(N2CCOCC2)c1C`, for which the AC50 under setting [2] is 6.51 µM [falling, single point]. Consider `CS(=O)(=O)Nc1cccc(C2=NN(C(=O)c3ccco3)C(c3cccs3)C2)c1` (configuration not stated), for which the cell number change is -1.74%. In addition, the half-maximal activity concentration (AC50) under setting [2] is 1.46 µM [rising, partial curve]. `Cc1cccc(C(=O)OCc2cc3ccccc3[nH]c2=O)c1`: the cell number change was -45.5%. Also, the AC50 under setting [1] is 9.2 µM [falling, partial curve]. The AC50 under setting [2] is 11.6 µM [falling, partial curve]. On to `COCCN1CCN(c2cc(-c3ccccc3)nc3cc(-c4cccc(F)c4)nn23)CC1`, for which the cell number change was -23.5%. Also, the AC50 under setting [2] is 29.1 µM [falling, single point]. Consider `O=C1c2cccc(OCc3ccc(F)cc3)c2CCN1Cc1ccc(F)cc1`, for which the cell number change was -22%.

Turning to `CCOc1ccc(-n2c(SCC(=O)NC3CCS(=O)(=O)C3)nnc2-c2cccnc2)cc1` (configuration not stated), the cell number change was -4.07%. For the same compound, under setting [1], the AC50 was 0.651 µM [rising, partial curve, poor fit]. In addition, the half-maximal activity concentration (AC50) under setting [2] is 0.651 µM [rising, partial curve, poor fit]. Take `CC(=O)c1c(C)[nH]c(C(=O)CSc2nnc(-c3ccccc3)o2)c1C`: the concentration at half-maximal activity (AC50) under setting [2] is 29.1 µM [falling, single point].

As for `Cc1ccc2nc(-c3ccncc3)c(NC3CCCCC3)n2c1`, the AC50 runs as follows: under setting [1], 0.651 µM [rising, single point]; under setting [2], 0.731 µM [rising, single point].

For the compound `CN(C)S(=O)(=O)N(CC(=O)NCCSCc1ccccc1)c1ccccc1`, the cell number change is 1.73%. Moreover, the AC50 under setting [2] was 1.84 µM [falling, partial curve]. Take `CC(CC(=O)Nc1ccc(C(N)=O)cc1)c1ccccc1` (configuration not stated): the cell number change is 13.9%. Moreover, the AC50 under setting [2] is 1.46 µM [rising, full curve]. Regarding `Cc1cc(C)n(-c2ccc(C(=O)OCC(=O)NCc3ccco3)cc2)n1`, the cell number change was -19.2%. With `CC(C)(CNC(=O)c1cc(-c2ccc(Cl)s2)nc2ccccc12)N1CCOCC1`, the cell number change worked out at 96%. Further, the AC50 under setting [1] was 13 µM [rising, partial curve]. On to `CC(C)c1nc(SCC(=O)Nc2c[nH]c(=O)[nH]c2=O)c2cnn(-c3ccccc3)c2n1`, for which the cell number change is 21.8%. Turning to `COc1ccccc1S(=O)(=O)CC(O)COc1ccccc1Cl` (configuration not stated), the cell number change is -1.39%. The AC50 under setting [2] was 0.708 µM [falling, full curve]. With `O=C(/C=C/c1ccc2c(c1)OCO2)NCCCN1CCOCC1`, the cell number change was determined as 1.68%. Besides, under setting [2], the AC50 was 0.058 µM [rising, full curve, poor fit].

Take `C=CCn1c(SCc2cc(=O)n3ccsc3n2)nc2sc(C)c(C)c2c1=O`: the cell number change was -12.7%. Moreover, the AC50 under setting [1] was 6.51 µM [rising, single point]. In addition, the AC50 under setting [2] was 0.259 µM [rising, partial curve, poor fit]. As for `O=C(N/N=C/c1c(O)n(-c2ccccc2Cl)c(=O)c2ccccc12)c1cccnc1`, the cell number change came to 43.7%. Moreover, under setting [1], the AC50 is 29.1 µM [rising, single point]. Also, the AC50 under setting [2] was 23.1 µM [rising, single point]. Take `O=c1cc(-c2ccccc2Cl)oc2c(NS(=O)(=O)c3cccc4nsnc34)ccc(O)c12`: the cell number change was 12.7%. The AC50 under setting [2] was 0.411 µM [rising, full curve]. Turning to `CCOC(=O)Cc1csc(NC(=O)COc2ccc3c(C)cc(=O)oc3c2)n1`, the cell number change is -16.8%. Besides, the AC50 under setting [2] is 2.31 µM [falling, partial curve, poor fit]. With `C#Cc1cccc(NC(=O)Cc2cccs2)c1`, the cell number change stood at 36.1%. Also, the concentration at half-maximal activity (AC50) under setting [1] was 18.4 µM [rising, single point]. Regarding `COc1ccc(-n2c(SCC(=O)Nc3cc(C)on3)nc3c([nH]c4ccccc43)c2=O)cc1OC`, the cell number change is -10.8%. For the same compound, the AC50 under setting [2] was 4.61 µM [rising, partial curve, poor fit]. For the compound `COc1ccc(/C=N/NC(=O)c2ccn[nH]2)cc1Cn1cc([N+](=O)[O-])cn1`, the cell number change is 24.4%. The AC50 under setting [2] is 10.3 µM [rising, partial curve].

Regarding `Cc1ccc2nc3n(c2c1)CCCN3`, the cell number change came to 19.2%. Further, under setting [2], the half-maximal activity concentration (AC50) was 13 µM [rising, partial curve, poor fit]. In the case of `CCn1cc(C(=O)OCC(=O)NCc2ccc3c(c2)OCO3)c(=O)c2ccc(C)nc21`, the cell number change was -4.71%. Further, the AC50 under setting [2] was 0.116 µM [rising, full curve, poor fit]. As to `Nc1ccc(C(=O)N/N=C/c2cn(Cc3ccccc3)c3ccccc23)cc1`, the cell number change is -31.2%. Further, the half-maximal activity concentration (AC50) under setting [1] was 14.6 µM [falling, single point]. `Cc1ccc(-n2c(C3CC3c3ccc(Cl)cc3)n[nH]c2=S)cc1` (configuration not stated): the cell number change was -31.7%. The AC50 under setting [1] was 0.259 µM [rising, full curve, poor fit]. Turning to `Cc1cccc(C)c1NC(=O)COC(=O)c1c(C)nn(-c2ccccc2)c1C`, the cell number change was -5.74%. The AC50 under setting [1] is 1.64 µM [falling, partial curve, poor fit]. For the same compound, the AC50 under setting [2] was 29.1 µM [falling, single point]. With `O=C(NCCC1=CCCCC1)C1CCN(C(=O)Cc2ccccc2)CC1`, the cell number change is -40.3%. Also, the AC50 under setting [1] is 4.11 µM [falling, partial curve].

Turning to `CC(C)CC(=O)N1CCN(C(=O)CCC2CCCC2)CC1`, the cell number change stood at 4.48%. For the same compound, under setting [2], the AC50 is 0.82 µM [falling, partial curve, poor fit]. As for `COc1cc(/C=C2\SC(=S)N(CCC(=O)NC3CCCC3)C2=O)cc(OC)c1OC`, the cell number change is -23.8%. Also, under setting [2], the AC50 was 6.51 µM [rising, single point]. For the compound `Clc1ccc(-c2nc3cnccn3c2Nc2ccc3c(c2)OCO3)cc1`, under setting [1], the half-maximal activity concentration (AC50) was 0.291 µM [rising, partial curve, poor fit].

With `Cc1cccc(-c2nc(CS(=O)CC(=O)NCC3CCCO3)c(C)o2)c1` (configuration not stated), the cell number change was 8.97%. For `CC(C)C[C@H](NC(=O)c1nc[nH]c1C(=O)N(C)Cc1ccccc1)C(=O)OCc1ccccc1`, the cell number change is -10.1%. Consider `O=C(NCc1ccc(Cl)cc1)C1CCCN(S(=O)(=O)c2cnc[nH]2)C1` (configuration not stated), for which the cell number change was found to be 30.6%. Besides, the AC50 under setting [1] is 6.51 µM [rising, partial curve, poor fit]. In addition, under setting [2], the AC50 is 6.51 µM [rising, partial curve, poor fit]. For the compound `Cc1cc(C)c2nc(N(CCN(C)C)C(=O)c3ccc4ccccc4c3)sc2c1`, the cell number change is 11%. Also, the AC50 under setting [2] was 16.4 µM [rising, partial curve]. Take `CNC(=O)NC(=O)C(C)OC(=O)CCCc1nc2ccccc2s1` (configuration not stated): the cell number change was -20.6%. Consider `O=S(=O)(NCC1CCCO1)c1cnc(Cl)c(Cl)c1` (configuration not stated), for which the cell number change was -18.8%. For the same compound, the AC50 under setting [1] was 0.58 µM [falling, full curve, poor fit]. Take `c1ccc2[nH]c(SCCN3CCOCC3)nc2c1`: the cell number change was determined as 14.1%. For the compound `C=CCn1c(SCC(=O)NC(=O)NCc2ccco2)nc2sc(C)c(C)c2c1=O`, the cell number change was -69%. Moreover, the AC50 under setting [1] is 23.1 µM [falling, partial curve]. Besides, under setting [2], the concentration at half-maximal activity (AC50) is 29.1 µM [falling, single point].
